These are yes or no findings as the source states them, for the method shown. For some assays here: Binding calls can cover weak binding; strength is not graded here. Sequences can lack the tags named with a protein.
What was measured:
[1] = target: human plasma fibronectin (human); assay: solid-phase binding assay (DELFIA); ligand coated on the plate (5 μg/cm^2, overnight at +4°C), blocked with Delfia Diluent; soluble GST-tagged receptor in Delfia Assay Buffer ± 2mM MgCl2 or MnCl2 or 5mM EDTA, 1h at RT; detected with Europium-labeled anti-GST antibody; both purified
[2] = target: collagen I; assay: as above

B1: recombinant embigin extracellular domain GST-fusion protein (EMB-GST) (domain or fragment)
chain: DGSAPDSPFTSPPLREEIMANNFSLESHNISLTEHSSMPVEKNITLERPSNVNLTCQFTTSGDLNAVNVTWKKDGEQLENNYLVSATGSTLYTQYRFTIINSKQMGSYSCFFREEKEQRGTFNFKVPELHGKNKPLISYVGDSTVLTCKCQNCFPLNWTWYSSNGSVKVPVGVQMNKYVINGTYANETKLKITQLLEEDGESYWCRALFQLGESEEHIELVVLSYLVP
With B1 the binding [1] was “binds” and the binding [2] was “no binding (tested: 200 nM)”.
